Literature values in patent publication US20250312309A1, “ALLYL-AND PROPARGYLAMINE-TYPE PHENE[…] T[…] TREATING MEDICAL DISORDERS” (Mind Medicine, Inc., priority 2023, published 2025).

Settings: humans; cited from earlier work

COc1cc(CC(C)N)c(OC)cc1C (centres unmarked) [DOM, 2,5-dimethoxy-4-methylamphetamine]
duration of action / psychoactive effects: 14 to 20 h

CCN(CC)C(=O)[C@@H]1C=C2c3cccc4[nH]cc(c34)C[C@H]2N(C)C1 [LSD, lysergic acid diethylamide]
duration of action / psychoactive effects: 8 to 14 h and 8 to 12 h

Several values for one entry are separate records, joined by “and”; a condition that tells them apart may be missing. Equal entries are not always repeated.
